This passage reports binding results from paper PMC4542127.

By UniProt entry, the sequences of proteins in these tests, tags left out.
UniProt P53667: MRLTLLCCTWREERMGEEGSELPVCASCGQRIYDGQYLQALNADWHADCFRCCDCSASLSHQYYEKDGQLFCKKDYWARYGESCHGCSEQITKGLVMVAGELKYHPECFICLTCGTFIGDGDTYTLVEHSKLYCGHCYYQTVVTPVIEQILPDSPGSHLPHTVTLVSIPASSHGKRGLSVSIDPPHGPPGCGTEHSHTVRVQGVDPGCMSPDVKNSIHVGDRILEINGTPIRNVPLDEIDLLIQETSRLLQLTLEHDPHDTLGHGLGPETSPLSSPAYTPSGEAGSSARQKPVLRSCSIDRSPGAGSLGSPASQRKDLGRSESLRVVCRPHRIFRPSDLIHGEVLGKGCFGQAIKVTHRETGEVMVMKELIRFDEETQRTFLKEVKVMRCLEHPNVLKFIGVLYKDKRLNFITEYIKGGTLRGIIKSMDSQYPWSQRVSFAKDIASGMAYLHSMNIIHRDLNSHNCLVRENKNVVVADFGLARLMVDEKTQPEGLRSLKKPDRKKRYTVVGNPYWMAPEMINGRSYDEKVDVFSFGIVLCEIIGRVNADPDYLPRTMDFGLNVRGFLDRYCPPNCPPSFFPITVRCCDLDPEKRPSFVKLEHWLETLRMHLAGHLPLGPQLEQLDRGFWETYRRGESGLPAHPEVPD

No constants are given. Whether binding was seen depends on the method and setting. In cells and extracts the contact can be indirect. Some results given as binding are weak or reduced against the parent protein; the word gives no strength.

The target in the experiment is T1, p57 (human (endogenous in BEL7402 and SMMC7721)) (UniProt P49918).
T1 sequence: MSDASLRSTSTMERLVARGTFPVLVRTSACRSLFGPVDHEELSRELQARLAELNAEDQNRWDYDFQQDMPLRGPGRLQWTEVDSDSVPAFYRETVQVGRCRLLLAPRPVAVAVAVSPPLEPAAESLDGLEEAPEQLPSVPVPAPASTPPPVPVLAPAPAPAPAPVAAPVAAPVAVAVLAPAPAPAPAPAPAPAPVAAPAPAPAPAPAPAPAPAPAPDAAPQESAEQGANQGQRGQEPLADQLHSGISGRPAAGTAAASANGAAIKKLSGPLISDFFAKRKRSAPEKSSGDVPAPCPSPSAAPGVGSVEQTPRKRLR
As to the kind of experiment: co-IP; anti-p57 antibody on Dynabeads protein G incubated with hepatoma cell lysate (0.1 % NP-40 lysis buffer, 50 mM Tris pH 7.4, 250 mM NaCl, 5 mM EDTA) 10 min at room temperature; washed with PBS; immunoblot with anti-LIMK1; cells stably transfected with shNC or shp57 (p57 knock-down). (In western blotting, separated proteins are transferred to a membrane and probed.)

With “LIM domain kinase 1 (from UniProt P53667 1-647) (enzyme)”, the binding result is recorded as “binds”.
